Test results taken from paper PMC7862700.
The other results are listed elsewhere or left out. The exact form of the protein is not confirmed.

What follows are sequences tested against T1, ETV4 (UniProt P43268) (assay: DAPPL (digital affinity profiling via proximity ligation, sequencing)). Conditions: 10 mM Tris-HCl pH 7.5, 50 mM NaCl, 1 mM DTT, 4% glycerol, room temperature, 30 min; GST-TFs on glutathione beads, 16-mer random dsDNA library, 0.1% …; high values mean tight binding; double strand, one strand shown; scale: fold enrichment (6-mer frequency, TF over GST control).
T1 sequence: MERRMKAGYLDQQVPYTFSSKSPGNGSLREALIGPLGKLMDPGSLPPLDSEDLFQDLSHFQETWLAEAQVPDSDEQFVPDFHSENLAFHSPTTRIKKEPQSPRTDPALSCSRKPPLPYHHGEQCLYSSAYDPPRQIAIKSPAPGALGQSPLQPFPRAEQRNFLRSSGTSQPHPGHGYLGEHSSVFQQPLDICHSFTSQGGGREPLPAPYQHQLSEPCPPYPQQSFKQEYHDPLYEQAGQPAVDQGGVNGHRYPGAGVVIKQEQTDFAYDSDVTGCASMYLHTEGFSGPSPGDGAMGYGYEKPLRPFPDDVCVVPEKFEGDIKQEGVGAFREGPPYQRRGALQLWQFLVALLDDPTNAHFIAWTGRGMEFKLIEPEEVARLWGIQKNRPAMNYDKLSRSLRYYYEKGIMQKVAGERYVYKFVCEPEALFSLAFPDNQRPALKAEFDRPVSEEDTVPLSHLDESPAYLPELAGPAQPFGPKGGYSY

How did the binding signal turn out when TCCTTG was run?
Its binding signal is 1.25.

With TAAATA as the sequence, how does the binding signal read?
Its binding signal is 1.15.

GGTTTC was tested. Which binding signal did it give?
Its binding signal is 1.61.

How did the binding signal turn out when TATACT was run?
The binding signal was 1.35.

For TGCTAA, which binding signal is on record?
The binding signal was 1.22.

Which binding signal does the source give for CCCCCG here?
Its binding signal is 1.19.

ATATGG was tested. Which binding signal did it give?
The binding signal was 1.28.

Which binding signal does the source give for ATGACT here?
Its binding signal is 1.52.

GCTGAA was tested. Which binding signal did it give?
Its binding signal is 1.15.

GTACTT was tested. Which binding signal did it give?
Its binding signal is 2.39.

Which binding signal does the source give for ACGGCC here?
The binding signal was 1.09.

Which binding signal does the source give for TCCTCC here?
Its binding signal is 1.57.

With TCCCTT as the sequence, how does the binding signal read?
The binding signal was 1.58.

Which binding signal does the source give for AACTAA here?
The binding signal was 1.37.

TCGACT was tested. Which binding signal did it give?
The binding signal was 1.45.

For TCTACT, which binding signal is on record?
The binding signal was 1.5.

With TTAGCG as the sequence, how does the binding signal read?
The binding signal was 0.969.

For ATCTCG, which binding signal is on record?
Its binding signal is 1.44.

For ACGAAC, which binding signal is on record?
Its binding signal is 1.14.

For TGACAC, which binding signal is on record?
The binding signal was 1.25.

TGCGTA was tested. Which binding signal did it give?
The binding signal was 1.19.

How did the binding signal turn out when GTTCAT was run?
Its binding signal is 1.14.

With GATGAA as the sequence, how does the binding signal read?
The binding signal was 1.17.

How did the binding signal turn out when CCCGGA was run?
Its binding signal is 2.57.

Which binding signal does the source give for TCACTT here?
Its binding signal is 1.68.

With TTAGGG as the sequence, how does the binding signal read?
Its binding signal is 1.09.

GATCTC was tested. Which binding signal did it give?
The binding signal was 1.4.

With ATGTGT as the sequence, how does the binding signal read?
The binding signal was 1.12.

How did the binding signal turn out when TCGTAC was run?
The binding signal was 1.1.

Which binding signal does the source give for CGCTAC here?
The binding signal was 1.26.

TACTTG was tested. Which binding signal did it give?
Its binding signal is 1.4.

With ACGTTA as the sequence, how does the binding signal read?
Its binding signal is 1.12.

How did the binding signal turn out when GAAGCA was run?
Its binding signal is 1.41.

Which binding signal does the source give for TTGAAC here?
The binding signal was 1.1.

With CTAATG as the sequence, how does the binding signal read?
The binding signal was 1.22.

TATTCT was tested. Which binding signal did it give?
The binding signal was 1.27.

Which binding signal does the source give for ATACCG here?
The binding signal was 1.12.

AACTTC was tested. Which binding signal did it give?
The binding signal was 2.69.

With TAATTT as the sequence, how does the binding signal read?
The binding signal was 1.31.

ACCTAA was tested. Which binding signal did it give?
Its binding signal is 1.18.
